Test results reported in paper PMC12033915.
No constants are given. Whether binding was seen depends on the method and setting. Binding seen in cells or lysates may run through a third protein. These calls come from enrichment with a bait or labelling near it, and not all partners need be listed.

By UniProt entry, the sequences of proteins in these tests, tags left out.
UniProt Q16630: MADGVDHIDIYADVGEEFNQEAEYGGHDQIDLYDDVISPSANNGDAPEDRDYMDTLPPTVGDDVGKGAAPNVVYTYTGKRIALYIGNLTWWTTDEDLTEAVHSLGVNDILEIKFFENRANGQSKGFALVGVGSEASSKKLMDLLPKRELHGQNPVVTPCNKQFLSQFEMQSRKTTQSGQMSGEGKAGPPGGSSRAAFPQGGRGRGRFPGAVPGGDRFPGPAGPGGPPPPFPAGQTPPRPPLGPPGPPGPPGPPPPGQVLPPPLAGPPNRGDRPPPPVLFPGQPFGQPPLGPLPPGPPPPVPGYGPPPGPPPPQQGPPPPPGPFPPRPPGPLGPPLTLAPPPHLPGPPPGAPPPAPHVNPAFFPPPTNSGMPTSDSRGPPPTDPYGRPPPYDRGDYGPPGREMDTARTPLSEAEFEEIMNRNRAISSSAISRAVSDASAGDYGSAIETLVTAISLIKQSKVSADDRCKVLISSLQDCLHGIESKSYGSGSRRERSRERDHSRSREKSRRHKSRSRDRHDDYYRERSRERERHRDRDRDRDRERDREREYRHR
UniProt P11940: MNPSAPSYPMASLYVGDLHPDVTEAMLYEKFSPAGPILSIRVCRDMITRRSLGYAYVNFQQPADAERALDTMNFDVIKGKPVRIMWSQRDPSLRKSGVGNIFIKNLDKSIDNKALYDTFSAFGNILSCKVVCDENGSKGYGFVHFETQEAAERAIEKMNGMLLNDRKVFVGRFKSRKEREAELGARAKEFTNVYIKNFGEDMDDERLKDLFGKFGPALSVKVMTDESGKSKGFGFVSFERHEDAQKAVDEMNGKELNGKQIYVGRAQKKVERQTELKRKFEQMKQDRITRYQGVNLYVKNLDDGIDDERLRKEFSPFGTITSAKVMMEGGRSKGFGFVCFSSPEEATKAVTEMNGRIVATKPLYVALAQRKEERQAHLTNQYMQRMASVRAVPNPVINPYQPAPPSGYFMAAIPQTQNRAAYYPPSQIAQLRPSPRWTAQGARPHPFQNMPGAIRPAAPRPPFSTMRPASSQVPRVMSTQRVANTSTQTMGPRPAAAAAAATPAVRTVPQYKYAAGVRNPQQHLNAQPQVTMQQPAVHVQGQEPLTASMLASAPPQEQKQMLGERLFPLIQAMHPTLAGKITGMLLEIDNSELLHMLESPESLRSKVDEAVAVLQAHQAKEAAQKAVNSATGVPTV

T1: SLC27A5 (bait of the IP-MS) (UniProt Q9Y2P5)
T1 sequence: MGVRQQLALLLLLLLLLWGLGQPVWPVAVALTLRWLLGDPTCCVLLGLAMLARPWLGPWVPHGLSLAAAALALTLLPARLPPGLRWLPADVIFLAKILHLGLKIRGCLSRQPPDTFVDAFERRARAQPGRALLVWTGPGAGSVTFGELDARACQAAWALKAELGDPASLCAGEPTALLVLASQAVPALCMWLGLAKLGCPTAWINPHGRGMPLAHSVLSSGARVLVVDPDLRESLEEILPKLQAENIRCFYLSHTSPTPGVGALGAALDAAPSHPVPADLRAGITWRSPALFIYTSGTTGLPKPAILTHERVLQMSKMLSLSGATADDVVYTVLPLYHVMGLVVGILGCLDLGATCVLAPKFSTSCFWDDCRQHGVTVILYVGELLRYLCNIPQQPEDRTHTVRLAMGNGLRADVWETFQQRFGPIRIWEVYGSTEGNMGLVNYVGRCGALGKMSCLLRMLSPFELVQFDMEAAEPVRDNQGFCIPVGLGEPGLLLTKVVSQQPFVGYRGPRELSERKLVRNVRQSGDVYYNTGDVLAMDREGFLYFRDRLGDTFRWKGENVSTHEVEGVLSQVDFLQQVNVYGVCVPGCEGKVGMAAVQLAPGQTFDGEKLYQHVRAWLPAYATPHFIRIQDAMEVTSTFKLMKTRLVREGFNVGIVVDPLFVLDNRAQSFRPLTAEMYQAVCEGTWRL

B1: EXOSC10 (protein, UniProt Q01780 1-885)
chain: MAPPSTREPRVLSATSATKSDGEMVLPGFPDADSFVKFALGSVVAVTKASGGLPQFGDEYDFYRSFPGFQAFCETQGDRLLQCMSRVMQYHGCRSNIKDRSKVTELEDKFDLLVDANDVILERVGILLDEASGVNKNQQPVLPAGLQVPKTVVSSWNRKAAEYGKKAKSETFRLLHAKNIIRPQLKFREKIDNSNTPFLPKIFIKPNAQKPLPQALSKERRERPQDRPEDLDVPPALADFIHQQRTQQVEQDMFAHPYQYELNHFTPADAVLQKPQPQLYRPIEETPCHFISSLDELVELNEKLLNCQEFAVDLEHHSYRSFLGLTCLMQISTRTEDFIIDTLELRSDMYILNESLTDPAIVKVFHGADSDIEWLQKDFGLYVVNMFDTHQAARLLNLGRHSLDHLLKLYCNVDSNKQYQLADWRIRPLPEEMLSYARDDTHYLLYIYDKMRLEMWERGNGQPVQLQVVWQRSRDICLKKFIKPIFTDESYLELYRKQKKHLNTQQLTAFQLLFAWRDKTARREDESYGYVLPNHMMLKIAEELPKEPQGIIACCNPVPPLVRQQINEMHLLIQQAREMPLLKSEVAAGVKKSGPLPSAERLENVLFGPHDCSHAPPDGYPIIPTSGSVPVQKQASLFPDEKEDNLLGTTCLIATAVITLFNEPSAEDSKKGPLTVAQKKAQNIMESFENPFRMFLPSLGHRAPVSQAAKFDPSTKIYEISNRWKLAQVQVQKDSKEAVKKKAAEQTAAREQAKEACKAAAEQAISVRQQVVLENAAKKRERATSDPRTTEQKQEKKRLKISKKPKDPEPPEKEFTPYDYSQSDFKAFAGNSKSKVSSQFDPNKQTPSGKKCIAAKKIKQSVGNKSMSFPTGKSDRGFRYNWPQR

Each molecule was assayed against T1, SLC27A5 (bait of the IP-MS) (assay: affinity purification with mass spectrometry; IP-MS of SLC27A5; cells, antibody and construct not told).

binding, binds:
CPSF6 (from UniProt Q16630 1-551)
PABPC1 (hit of the IP-MS of SLC27A5) (from UniProt P11940 1-636)
B1
